Values of other authors as cited in patent US9938301B2, “Dihydropyrimido fused ring derivative as HBV inhibitor” (QILU PHARMACEUTICAL CO., LTD., priority 2014, dated 2018).
At least one compound was matched to its structure with a doubt left.

System: Hepatitis B virus
Conditions: Science, 299 (2003), 893-896; cited from earlier work

## Nc1ccn([C@@H]2CS[C@H](CO)O2)c(=O)n1 [lamivudine]
  IC50: 300 nM
